The values below come from the supplement of paper PMC12819154, “High-throughput peptide-centric local stability assay extends protein–ligand identification to membrane proteins, tissues and bacteria” (Nature Structural & Molecular Biology, 2025).

Chains of the proteins cited; added tags and fusions are not shown. Lines headed by an entry give the natural chain unless they say otherwise; changes in a name come on top.
UniProt P52306: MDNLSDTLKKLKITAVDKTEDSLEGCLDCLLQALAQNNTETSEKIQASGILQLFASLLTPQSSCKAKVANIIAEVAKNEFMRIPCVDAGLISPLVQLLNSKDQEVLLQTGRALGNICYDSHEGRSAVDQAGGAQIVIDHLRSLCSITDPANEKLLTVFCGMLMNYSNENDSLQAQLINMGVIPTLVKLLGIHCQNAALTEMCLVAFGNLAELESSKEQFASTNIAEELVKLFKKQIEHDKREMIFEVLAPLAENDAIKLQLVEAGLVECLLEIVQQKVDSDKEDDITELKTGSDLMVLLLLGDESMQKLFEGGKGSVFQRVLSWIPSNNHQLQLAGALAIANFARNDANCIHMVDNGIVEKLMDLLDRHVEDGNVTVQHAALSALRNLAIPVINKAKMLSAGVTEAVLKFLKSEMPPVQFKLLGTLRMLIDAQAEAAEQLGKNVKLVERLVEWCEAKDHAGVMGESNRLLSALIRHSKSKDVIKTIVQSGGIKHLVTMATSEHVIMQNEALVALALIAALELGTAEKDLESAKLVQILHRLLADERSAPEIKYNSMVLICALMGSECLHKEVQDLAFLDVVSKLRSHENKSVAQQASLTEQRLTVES
UniProt P52294, whole entry: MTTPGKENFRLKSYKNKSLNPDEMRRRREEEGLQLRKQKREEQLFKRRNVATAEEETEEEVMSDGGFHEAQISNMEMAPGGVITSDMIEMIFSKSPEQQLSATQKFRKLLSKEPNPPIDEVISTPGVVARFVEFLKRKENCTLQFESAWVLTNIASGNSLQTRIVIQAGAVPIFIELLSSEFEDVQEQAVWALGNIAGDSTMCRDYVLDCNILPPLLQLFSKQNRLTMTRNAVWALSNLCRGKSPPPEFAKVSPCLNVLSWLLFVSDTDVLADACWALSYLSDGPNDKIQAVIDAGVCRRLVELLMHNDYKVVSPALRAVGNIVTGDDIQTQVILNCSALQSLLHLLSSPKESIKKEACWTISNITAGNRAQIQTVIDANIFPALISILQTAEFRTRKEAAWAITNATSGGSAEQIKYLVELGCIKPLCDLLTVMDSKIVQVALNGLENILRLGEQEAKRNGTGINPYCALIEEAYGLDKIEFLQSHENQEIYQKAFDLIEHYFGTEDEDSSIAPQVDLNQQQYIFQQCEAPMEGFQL
UniProt P53621: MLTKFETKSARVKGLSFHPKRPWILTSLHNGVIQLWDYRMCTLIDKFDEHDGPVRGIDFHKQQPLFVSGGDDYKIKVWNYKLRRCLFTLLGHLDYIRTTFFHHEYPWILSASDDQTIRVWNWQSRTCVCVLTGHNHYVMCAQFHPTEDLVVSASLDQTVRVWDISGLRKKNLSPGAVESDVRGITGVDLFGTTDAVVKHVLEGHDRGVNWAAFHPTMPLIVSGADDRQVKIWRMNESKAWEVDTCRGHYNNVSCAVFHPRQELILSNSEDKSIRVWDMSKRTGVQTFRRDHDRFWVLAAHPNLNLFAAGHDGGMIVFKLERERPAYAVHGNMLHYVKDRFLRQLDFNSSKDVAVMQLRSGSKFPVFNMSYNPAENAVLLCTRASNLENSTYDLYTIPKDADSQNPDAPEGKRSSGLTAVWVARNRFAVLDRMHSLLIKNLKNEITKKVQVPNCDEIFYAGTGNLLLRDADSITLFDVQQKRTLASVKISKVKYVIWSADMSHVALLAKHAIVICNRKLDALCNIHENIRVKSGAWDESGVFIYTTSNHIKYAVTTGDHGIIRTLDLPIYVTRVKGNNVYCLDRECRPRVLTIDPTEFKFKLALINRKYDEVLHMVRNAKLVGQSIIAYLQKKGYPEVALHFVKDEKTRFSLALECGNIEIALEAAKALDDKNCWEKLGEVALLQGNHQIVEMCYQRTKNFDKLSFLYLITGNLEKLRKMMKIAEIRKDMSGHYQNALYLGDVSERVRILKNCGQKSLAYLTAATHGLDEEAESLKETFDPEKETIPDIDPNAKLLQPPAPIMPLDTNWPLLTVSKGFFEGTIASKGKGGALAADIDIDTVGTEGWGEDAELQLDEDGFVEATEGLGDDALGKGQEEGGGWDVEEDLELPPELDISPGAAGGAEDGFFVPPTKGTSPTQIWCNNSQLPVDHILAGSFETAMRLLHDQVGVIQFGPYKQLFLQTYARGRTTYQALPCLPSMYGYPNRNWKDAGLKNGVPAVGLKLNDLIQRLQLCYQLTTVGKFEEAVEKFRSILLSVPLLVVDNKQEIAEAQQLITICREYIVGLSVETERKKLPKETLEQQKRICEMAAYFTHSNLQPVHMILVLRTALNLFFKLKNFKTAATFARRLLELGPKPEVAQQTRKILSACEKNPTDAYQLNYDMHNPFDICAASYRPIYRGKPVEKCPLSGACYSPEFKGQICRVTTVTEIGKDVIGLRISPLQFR
UniProt P48556: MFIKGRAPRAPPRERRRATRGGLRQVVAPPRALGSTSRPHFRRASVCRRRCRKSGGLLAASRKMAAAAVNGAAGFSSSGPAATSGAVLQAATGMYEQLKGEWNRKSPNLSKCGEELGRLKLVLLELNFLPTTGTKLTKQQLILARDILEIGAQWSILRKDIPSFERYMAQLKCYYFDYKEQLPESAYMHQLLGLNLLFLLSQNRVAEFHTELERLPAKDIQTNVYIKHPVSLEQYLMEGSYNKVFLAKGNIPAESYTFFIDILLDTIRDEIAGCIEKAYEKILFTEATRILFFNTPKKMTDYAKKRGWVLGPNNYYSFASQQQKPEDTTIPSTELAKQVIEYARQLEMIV
UniProt P52747: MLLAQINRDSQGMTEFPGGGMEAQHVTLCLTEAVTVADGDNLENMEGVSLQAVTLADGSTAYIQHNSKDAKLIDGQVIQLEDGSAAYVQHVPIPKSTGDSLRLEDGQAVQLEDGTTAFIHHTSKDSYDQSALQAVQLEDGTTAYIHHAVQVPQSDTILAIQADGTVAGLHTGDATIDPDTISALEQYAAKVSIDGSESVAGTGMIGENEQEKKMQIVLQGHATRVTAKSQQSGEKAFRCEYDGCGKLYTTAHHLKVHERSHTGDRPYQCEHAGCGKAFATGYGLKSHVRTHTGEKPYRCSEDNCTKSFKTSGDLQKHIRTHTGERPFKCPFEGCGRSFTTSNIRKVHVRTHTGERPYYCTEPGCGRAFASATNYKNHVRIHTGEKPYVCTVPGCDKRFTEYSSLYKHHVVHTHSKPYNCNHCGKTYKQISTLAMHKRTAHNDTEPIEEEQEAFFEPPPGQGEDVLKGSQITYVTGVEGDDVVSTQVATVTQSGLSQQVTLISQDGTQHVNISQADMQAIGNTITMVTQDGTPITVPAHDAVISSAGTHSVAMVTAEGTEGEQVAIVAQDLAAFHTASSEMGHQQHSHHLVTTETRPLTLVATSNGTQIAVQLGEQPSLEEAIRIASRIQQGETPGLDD
UniProt P52566: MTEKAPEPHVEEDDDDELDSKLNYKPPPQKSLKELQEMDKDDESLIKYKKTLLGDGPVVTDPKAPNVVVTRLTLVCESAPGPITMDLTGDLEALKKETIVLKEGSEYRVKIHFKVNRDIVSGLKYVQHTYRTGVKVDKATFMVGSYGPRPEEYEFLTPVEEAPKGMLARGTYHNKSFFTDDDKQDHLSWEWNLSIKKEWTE
UniProt P49815: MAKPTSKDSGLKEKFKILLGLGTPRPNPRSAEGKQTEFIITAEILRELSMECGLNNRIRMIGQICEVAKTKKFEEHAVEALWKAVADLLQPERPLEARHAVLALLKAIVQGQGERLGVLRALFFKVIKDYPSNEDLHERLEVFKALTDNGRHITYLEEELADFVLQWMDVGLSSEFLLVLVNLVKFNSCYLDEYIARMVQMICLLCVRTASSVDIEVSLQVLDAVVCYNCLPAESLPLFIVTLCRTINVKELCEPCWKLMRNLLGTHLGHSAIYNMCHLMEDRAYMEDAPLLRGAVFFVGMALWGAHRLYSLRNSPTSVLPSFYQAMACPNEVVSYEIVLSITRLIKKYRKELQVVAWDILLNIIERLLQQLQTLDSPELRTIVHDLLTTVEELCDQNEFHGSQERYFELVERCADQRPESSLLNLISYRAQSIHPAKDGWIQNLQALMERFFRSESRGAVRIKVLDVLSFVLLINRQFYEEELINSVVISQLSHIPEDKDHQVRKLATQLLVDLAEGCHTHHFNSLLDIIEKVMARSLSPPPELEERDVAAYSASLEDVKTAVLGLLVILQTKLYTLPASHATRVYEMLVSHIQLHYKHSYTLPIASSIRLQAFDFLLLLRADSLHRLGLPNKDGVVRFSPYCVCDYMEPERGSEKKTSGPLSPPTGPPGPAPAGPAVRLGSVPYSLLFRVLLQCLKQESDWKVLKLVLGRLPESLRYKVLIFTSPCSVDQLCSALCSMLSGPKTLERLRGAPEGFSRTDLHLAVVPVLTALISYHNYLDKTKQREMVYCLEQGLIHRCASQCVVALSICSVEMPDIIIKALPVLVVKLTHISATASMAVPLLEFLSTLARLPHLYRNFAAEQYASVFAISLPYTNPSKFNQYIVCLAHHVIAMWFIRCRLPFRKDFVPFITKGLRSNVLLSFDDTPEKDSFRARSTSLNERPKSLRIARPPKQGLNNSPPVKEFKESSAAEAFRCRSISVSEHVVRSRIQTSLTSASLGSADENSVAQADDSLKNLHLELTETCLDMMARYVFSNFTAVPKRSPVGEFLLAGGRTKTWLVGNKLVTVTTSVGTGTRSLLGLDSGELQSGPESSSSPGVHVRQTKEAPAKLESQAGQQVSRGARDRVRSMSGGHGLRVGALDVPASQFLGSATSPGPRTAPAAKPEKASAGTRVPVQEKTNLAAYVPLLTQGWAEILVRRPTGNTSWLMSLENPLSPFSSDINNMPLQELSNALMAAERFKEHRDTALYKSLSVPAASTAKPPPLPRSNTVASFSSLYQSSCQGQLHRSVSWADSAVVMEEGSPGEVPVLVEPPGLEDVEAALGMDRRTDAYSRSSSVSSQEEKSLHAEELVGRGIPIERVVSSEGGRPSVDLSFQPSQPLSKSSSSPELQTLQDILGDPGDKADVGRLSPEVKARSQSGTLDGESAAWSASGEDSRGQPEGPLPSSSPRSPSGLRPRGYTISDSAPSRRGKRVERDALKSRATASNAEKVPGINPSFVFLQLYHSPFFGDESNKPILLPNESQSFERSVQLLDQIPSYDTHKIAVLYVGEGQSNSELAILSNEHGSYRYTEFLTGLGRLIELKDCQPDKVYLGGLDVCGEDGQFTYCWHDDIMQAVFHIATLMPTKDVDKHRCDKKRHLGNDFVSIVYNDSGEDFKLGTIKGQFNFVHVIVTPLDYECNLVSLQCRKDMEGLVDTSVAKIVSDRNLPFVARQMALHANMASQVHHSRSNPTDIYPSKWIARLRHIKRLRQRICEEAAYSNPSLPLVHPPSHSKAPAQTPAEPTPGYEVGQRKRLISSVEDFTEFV
UniProt P49917: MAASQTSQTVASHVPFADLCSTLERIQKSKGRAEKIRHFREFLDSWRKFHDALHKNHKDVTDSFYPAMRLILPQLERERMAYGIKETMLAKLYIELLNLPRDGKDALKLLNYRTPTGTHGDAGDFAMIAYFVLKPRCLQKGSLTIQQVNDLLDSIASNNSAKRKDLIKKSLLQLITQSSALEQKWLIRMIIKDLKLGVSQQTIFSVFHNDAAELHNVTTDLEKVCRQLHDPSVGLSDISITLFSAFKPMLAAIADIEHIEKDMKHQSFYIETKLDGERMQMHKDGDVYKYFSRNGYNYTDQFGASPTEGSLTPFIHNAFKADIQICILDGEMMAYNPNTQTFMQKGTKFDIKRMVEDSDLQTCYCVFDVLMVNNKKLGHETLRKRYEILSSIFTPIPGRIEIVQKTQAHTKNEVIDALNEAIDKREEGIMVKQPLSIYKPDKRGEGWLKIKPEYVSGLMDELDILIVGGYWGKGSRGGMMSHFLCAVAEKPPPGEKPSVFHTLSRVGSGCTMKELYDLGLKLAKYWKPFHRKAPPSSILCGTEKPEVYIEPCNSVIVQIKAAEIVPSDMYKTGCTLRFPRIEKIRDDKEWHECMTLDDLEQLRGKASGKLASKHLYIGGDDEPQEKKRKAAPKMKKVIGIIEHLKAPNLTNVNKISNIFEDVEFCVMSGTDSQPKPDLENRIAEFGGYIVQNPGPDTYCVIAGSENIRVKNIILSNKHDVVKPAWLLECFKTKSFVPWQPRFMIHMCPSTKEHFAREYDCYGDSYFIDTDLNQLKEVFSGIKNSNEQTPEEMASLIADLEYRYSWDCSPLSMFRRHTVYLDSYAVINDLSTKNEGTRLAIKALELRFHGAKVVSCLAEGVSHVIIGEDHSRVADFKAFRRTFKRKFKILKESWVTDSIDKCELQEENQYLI

The list shows a part of the results. Most values lie at the level of the controls, where differences are scatter.

Compound in the test: Cc1nc(Nc2ncc(C(=O)Nc3c(C)cccc3Cl)s2)cc(N2CCN(CCO)CC2)n1 [dasatinib]
Put plainly: log2 fold change of tryptic peptide abundance, ligand vs vehicle (limited proteolysis) (log2 ratio); higher = more trypsin-susceptible (destabilized). As to conditions: ligand concentration: 5 uM; sample: K562 cleared lysate.
Consider “RAP1GDS1 (peptide sequence: LMDLLDR, peptide start residue: 362) (UniProt P52306)”, for which the log2 fold change is -0.262.

Turning to “KPNA1 (peptide sequence: SLNPDEMRR, peptide start residue: 18) (UniProt P52294)”, the log2 fold change is -0.532.

With “COPA (peptide sequence: ALDDKNCWEK, peptide start residue: 667) (UniProt P53621)”, the log2 fold change was -0.377.

For “PSMD8 (peptide sequence: SPNLSKCGEELGR, peptide start residue: 106) (UniProt P48556)”, the log2 fold change is 0.607.

For “ZNF143 (peptide sequence: LEDGQAVQLEDGTTAFIHHTSK, peptide start residue: 103) (UniProt P52747)”, the log2 fold change amounted to 0.488.

As for “ARHGDIB (peptide sequence: TLLGDGPVVTDPK, peptide start residue: 51) (UniProt P52566)”, the log2 fold change was found to be 0.139.

Turning to “TSC2 (peptide sequence: KFEEHAVEALWK, peptide start residue: 72) (UniProt P49815)”, the log2 fold change came out at 0.747.

For the target “RPL34 (peptide sequence: RAFLIEEQKIVVK, peptide start residue: 93) (UniProt P49207)”, the log2 fold change was -0.473.

Regarding “ATRX (peptide sequence: NSSDSAIDNPKPNKLPK, peptide start residue: 702) (UniProt P46100)”, the log2 fold change stood at 0.427.

“LIG4 (peptide sequence: LILPQLER, peptide start residue: 70) (UniProt P49917)”: the log2 fold change was -0.485.
